Measurements reported in PubChem BioAssay AID1224830 (NIAID, 2016)

Aim: 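Regulators of TLR4 signalling towards TNF-alpha in macrophage-like cells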 (primary screen)
Cells: human THP-1 monocytic leukaemia cells, TNF dual-luciferase reporter clone, PMA-differentiated to macrophage-like cells
Reagent: siRNA pool against human genes, 50 nM
Time to read-out: LPS for 4 h, given about 3 days after siRNA transfection
Conditions: bacterial LPS (TLR4 ligand), 10 ng/ml
Detection: 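TNF firefly reporter luminescence divided by renilla, normalised to the plate median, then turned into a robust z-score for each replicate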
Reading the numbers: TNF reporter robust z-score: higher = stronger TNF reporter response to LPS
Hit rule: 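Each well counts as active if its z-score is over 2.8 or under -1.5; controls are left without a call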
The deposit covers about 18,000 reagents; this is a part drawn at random. About 2,900 of them (16%) count as active. 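Calls are made per well; low scores hint the gene aids the LPS response, high scores that it dampens it.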 Unmarked entries are inactive. Repeated entries: four replicate wells of each siRNA pool.

| gene knocked down | TNF reporter robust z-score |
| --- | --- |
| SRI | 0.05 |
| SRI | 1.54 |
| SRI | 2.2 |
| SRI | 0.72 |
| RALGAPB | 0.33 |
| RALGAPB | 0.11 |
| RALGAPB | 0.53 |
| RALGAPB | 3.35 (active) |
| SACK1C | 1.87 |
| SACK1C | 2.46 |
| SACK1C | 2.6 |
| SACK1C | 1.8 |
| HAND2 | -0.43 |
| HAND2 | 0.02 |
| HAND2 | 0.31 |
| HAND2 | -0.08 |
| TTC21A | 3.91 (active) |
| TTC21A | -0.43 |
| TTC21A | -0.83 |
| TTC21A | -0.32 |
| LTBP1 | -0.94 |
| LTBP1 | -0.03 |
| LTBP1 | -0.05 |
| LTBP1 | 0.06 |
| AFF4 | 0.34 |
| AFF4 | 0.79 |
| AFF4 | 0.18 |
| AFF4 | 0.61 |
| DPYD | 2.35 |
| DPYD | 2.29 |
| DPYD | 1.71 |
| DPYD | 2.34 |
| KRT27 | 1.04 |
| KRT27 | 1.56 |
| KRT27 | 2.59 |
| KRT27 | 2.22 |
| ZCCHC3 | -0.74 |
| ZCCHC3 | -0.37 |
| ZCCHC3 | 0.05 |
| OPLAH | 0.73 |
| OPLAH | 0.18 |
| OPLAH | 0.4 |
| OPLAH | -0.43 |
| NBL1 | -0.31 |
| NBL1 | -0.22 |
| NBL1 | -0.25 |
| NBL1 | -0.33 |
| BCAR3 | 2.62 |
| BCAR3 | 1.52 |
| BCAR3 | 1.86 |
| BCAR3 | 4.08 (active) |
| MYBPC3 | -0.53 |
| MYBPC3 | 0.52 |
| MYBPC3 | -0.28 |
| MYBPC3 | 0.55 |
| TAX1BP3 | 1.25 |
| TAX1BP3 | 1.03 |
| TAX1BP3 | 0.19 |
| TAX1BP3 | 1.43 |
| TSNAX | 0 |
| TSNAX | 0.8 |
| TSNAX | -0.2 |
| TSNAX | 0.94 |
| TAFA5 | -0.11 |
| TAFA5 | -0.94 |
| TAFA5 | -0.75 |
| TAFA5 | -1.07 |
| IKBKB | -0.79 |
| IKBKB | -1.31 |
| IKBKB | -0.43 |
| IKBKB | -1.32 |
| PSMA1 | -1.34 |
| PSMA1 | 0.03 |
| PSMA1 | -1.36 |
| PSMA1 | -0.66 |
